Reference: US10563263B2, “Genetic polymorphisms associated with statin response and cardiovascular diseases, methods of detection and uses thereof” (CELERA CORPORATION, priority 2010, dated 2020)
Further values from the same series stand in other lists.

Tested on: revascularization, unstable angina requiring hospitalization, MI, all causes of death, or stroke
Assay: PROVE IT-TIMI 22: SNP by treatment interaction (high-dose atorvastatin vs standard-dose pravastatin), logistic regression (synergy index), primary composite endpoint
Assay type: in vivo, human

SMILES: CC(C)c1c(C(=O)Nc2ccccc2)c(-c2ccccc2)c(-c2ccc(F)cc2)n1CC[C@@H](O)C[C@@H](O)CC(=O)O [Atorvastatin, atorvastatin]
- OR (rs3847825 allele G, ADD, Imputed, atorvastatin vs pravastatin): 0.7616
- OR (rs3852001 allele C, REC, Genotyped, atorvastatin vs pravastatin): 1.348
- OR (rs3852002 allele G, REC, Imputed, atorvastatin vs pravastatin): 1.348
- OR (rs3852003 allele A, REC, Imputed, atorvastatin vs pravastatin): 1.351
- OR (rs3942254 allele T, DOM, Imputed, atorvastatin vs pravastatin): 0.6591
- OR (rs3945085 allele A, DOM, Imputed, atorvastatin vs pravastatin): 1.324
- OR (rs4029119 allele G, ADD, Imputed, atorvastatin vs pravastatin): 0.9741
- OR (rs4029119 allele G, DOM, Imputed, atorvastatin vs pravastatin): 1.136
- OR (rs4146972 allele T, DOM, Genotyped, atorvastatin vs pravastatin): 1.832
- OR (rs4259369 allele C, REC, Imputed, atorvastatin vs pravastatin): 0.659
- OR (rs4273613 allele T, ADD, Imputed, atorvastatin vs pravastatin): 0.9741
- OR (rs4273613 allele T, DOM, Imputed, atorvastatin vs pravastatin): 1.136
- OR (rs4294022 allele C, DOM, Imputed, atorvastatin vs pravastatin): 1.051
- OR (rs4310554 allele C, DOM, Genotyped, atorvastatin vs pravastatin): 1.561
- OR (rs4315598 allele T, ADD, Imputed, atorvastatin vs pravastatin): 1.389
- OR (rs4370878 allele G, DOM, Imputed, atorvastatin vs pravastatin): 1.312
- OR (rs4436200 allele C, ADD, Imputed, atorvastatin vs pravastatin): 0.543
- OR (rs4444612 allele G, ADD, Imputed, atorvastatin vs pravastatin): 1.389
- OR (rs4463950 allele C, DOM, Imputed, atorvastatin vs pravastatin): 0.7997
- OR (rs4509702 allele C, DOM, Imputed, atorvastatin vs pravastatin): 1.312
- OR (rs4533379 allele G, ADD, Imputed, atorvastatin vs pravastatin): 1.075
- OR (rs4569984 allele A, DOM, Imputed, atorvastatin vs pravastatin): 1.031
- OR (rs4570530 allele C, DOM, Imputed, atorvastatin vs pravastatin): 1.312
- OR (rs4571583 allele T, DOM, Imputed, atorvastatin vs pravastatin): 1.001
- OR (rs4615971 allele C, DOM, Imputed, atorvastatin vs pravastatin): 1.347
- OR (rs4629229 allele G, DOM, Imputed, atorvastatin vs pravastatin): 1.138
- OR (rs4641552 allele A, ADD, Imputed, atorvastatin vs pravastatin): 0.6214
- OR (rs4682527 allele C, DOM, Imputed, atorvastatin vs pravastatin): 2.955
- OR (rs4688632 allele G, REC, Imputed, atorvastatin vs pravastatin): 0.6822
- OR (rs4702720 allele A, ADD, Imputed, atorvastatin vs pravastatin): 0.757
- OR (rs4702720 allele A, DOM, Imputed, atorvastatin vs pravastatin): 0.6462
- OR (rs4714484 allele A, ADD, Imputed, atorvastatin vs pravastatin): 0.8396
- OR (rs4714484 allele A, DOM, Imputed, atorvastatin vs pravastatin): 0.8278
- OR (rs4725142 allele G, REC, Genotyped, atorvastatin vs pravastatin): 1.186
- OR (rs4725144 allele G, REC, Imputed, atorvastatin vs pravastatin): 1.136
- OR (rs4760785 allele A, ADD, Imputed, atorvastatin vs pravastatin): 0.7137
- OR (rs4760785 allele A, DOM, Imputed, atorvastatin vs pravastatin): 0.7026
- OR (rs4760894 allele T, ADD, Imputed, atorvastatin vs pravastatin): 0.7137
- OR (rs4760894 allele T, DOM, Imputed, atorvastatin vs pravastatin): 0.7026
- OR (rs4760895 allele A, ADD, Imputed, atorvastatin vs pravastatin): 0.7137
- OR (rs4760895 allele A, DOM, Imputed, atorvastatin vs pravastatin): 0.7026
- OR (rs4767184 allele C, ADD, Imputed, atorvastatin vs pravastatin): 0.7759
- OR (rs4773487 allele T, ADD, Imputed, atorvastatin vs pravastatin): 1.73
- OR (rs4780547 allele G, REC, Imputed, atorvastatin vs pravastatin): 0.2881
- OR (rs4836502 allele T, DOM, Imputed, atorvastatin vs pravastatin): 0.5934
- OR (rs4836507 allele C, DOM, Imputed, atorvastatin vs pravastatin): 0.5803
- OR (rs4851531 allele T, DOM, Imputed, atorvastatin vs pravastatin): 0.6071
- OR (rs4879931 allele G, ADD, Imputed, atorvastatin vs pravastatin): 0.7451
- OR (rs4976276 allele T, ADD, Imputed, atorvastatin vs pravastatin): 0.9836
- OR (rs4977681 allele C, REC, Imputed, atorvastatin vs pravastatin): 0.9851
- OR (rs4986197 allele G, ADD, Imputed, atorvastatin vs pravastatin): 1.083
- OR (rs4986220 allele T, ADD, Imputed, atorvastatin vs pravastatin): 1.075
- OR (rs5756669 allele C, DOM, Imputed, atorvastatin vs pravastatin): 1.061
- OR (rs6033138 allele C, ADD, Imputed, atorvastatin vs pravastatin): 1.389
- OR (rs6040619 allele C, ADD, Imputed, atorvastatin vs pravastatin): 1.429
- OR (rs6040625 allele T, ADD, Imputed, atorvastatin vs pravastatin): 1.414
- OR (rs6040630 allele A, ADD, Imputed, atorvastatin vs pravastatin): 1.401
- OR (rs6040633 allele A, ADD, Imputed, atorvastatin vs pravastatin): 1.391
- OR (rs6040634 allele T, ADD, Imputed, atorvastatin vs pravastatin): 1.404
- OR (rs6040638 allele C model ADD Imputed, ATORVA vs PRAVA): 1.389
- OR (rs6040644 allele A model ADD Imputed, ATORVA vs PRAVA): 1.389
- OR (rs6040667 allele T model ADD Imputed, ATORVA vs PRAVA): 1.422
- OR (rs6040668 allele C model ADD Imputed, ATORVA vs PRAVA): 1.398
- OR (rs6053005 allele C model DOM Imputed, ATORVA vs PRAVA): 0.4506
- OR (rs6054405 allele A model REC Imputed, ATORVA vs PRAVA): 0.9755
- OR (rs6075186 allele G model DOM Imputed, ATORVA vs PRAVA): 1.138
- OR (rs6111540 allele A model ADD Imputed, ATORVA vs PRAVA): 0.9692
- OR (rs6131206 allele C model ADD Imputed, ATORVA vs PRAVA): 1.493
- OR (rs6131208 allele T model ADD Imputed, ATORVA vs PRAVA): 1.387
- OR (rs6131919 allele G model DOM Imputed, ATORVA vs PRAVA): 1.138
- OR (rs6134243 allele C model ADD Imputed, ATORVA vs PRAVA): 1.389
- OR (rs6136020 allele A model DOM Imputed, ATORVA vs PRAVA): 1.061
- OR (rs6464377 allele C model DOM Imputed, ATORVA vs PRAVA): 1.043
- OR (rs6476565 allele A model DOM Imputed, ATORVA vs PRAVA): 1.184
- OR (rs6511286 allele T model ADD Imputed, ATORVA vs PRAVA): 1.099
- OR (rs6541829 allele C model REC Genotyped, ATORVA vs PRAVA): 2.003
- OR (rs6544728 allele T model DOM Imputed, ATORVA vs PRAVA): 1.333
- OR (rs6565910 allele G model DOM Imputed, ATORVA vs PRAVA): 1.047
- OR (rs6581985 allele G model REC Imputed, ATORVA vs PRAVA): 2.451
- OR (rs6685186 allele T model ADD Imputed, ATORVA vs PRAVA): 1.015
- OR (rs6722640 allele T model DOM Imputed, ATORVA vs PRAVA): 0.5987
- OR (rs6746170 allele A model DOM Imputed, ATORVA vs PRAVA): 1.346
- OR (rs6805139 allele G model DOM Imputed, ATORVA vs PRAVA): 1.417
- OR (rs6808571 allele G model ADD Imputed, ATORVA vs PRAVA): 1.138
- OR (rs6816479 allele A model REC Imputed, ATORVA vs PRAVA): 0.7905
- OR (rs6865976 allele C model DOM Imputed, ATORVA vs PRAVA): 1.085
- OR (rs6871041 allele G model DOM Imputed, ATORVA vs PRAVA): 0.6503
- OR (rs6908481 allele C model REC Imputed, ATORVA vs PRAVA): 1.391
- OR (rs6917224 allele A model ADD Imputed, ATORVA vs PRAVA): 0.959
- OR (rs6920677 allele G model DOM Imputed, ATORVA vs PRAVA): 0.9579
- OR (rs6998772 allele T model DOM Imputed, ATORVA vs PRAVA): 1.182
- OR (rs7022281 allele C model ADD Imputed, ATORVA vs PRAVA): 0.6915
- OR (rs7022281 allele C model REC Imputed, ATORVA vs PRAVA): 0.386
- OR (rs7043983 allele T model DOM Imputed, ATORVA vs PRAVA): 1.147
- OR (rs7077799 allele A model DOM Imputed, ATORVA vs PRAVA): 1.347
- OR (rs7088947 allele A model ADD Imputed, ATORVA vs PRAVA): 0.5704
- OR (rs7089661 allele C model DOM Imputed, ATORVA vs PRAVA): 1.347
- OR (rs7102072 allele A model DOM Imputed, ATORVA vs PRAVA): 0.9567
- OR (rs7129817 allele T model ADD Imputed, ATORVA vs PRAVA): 0.9401
- OR (rs7134262 allele T model REC Imputed, ATORVA vs PRAVA): 1.986
- OR (rs7138300 allele C model ADD Imputed, ATORVA vs PRAVA): 0.7137
- OR (rs7138300 allele C model DOM Imputed, ATORVA vs PRAVA): 0.7026
- OR (rs7295817 allele C model ADD Imputed, ATORVA vs PRAVA): 0.727
- OR (rs7295817 allele C model REC Imputed, ATORVA vs PRAVA): 0.4929
- OR (rs7297372 allele A model ADD Imputed, ATORVA vs PRAVA): 0.7305
- OR (rs7298255 allele A model ADD Imputed, ATORVA vs PRAVA): 0.7433
- OR (rs7298255 allele A model DOM Imputed, ATORVA vs PRAVA): 0.74
- OR (rs7305832 allele C model REC Imputed, ATORVA vs PRAVA): 2.008
- OR (rs7446891 allele G model DOM Imputed, ATORVA vs PRAVA): 0.5934
- OR (rs7448641 allele C model ADD Imputed, ATORVA vs PRAVA): 0.9741
- OR (rs7448641 allele C model DOM Imputed, ATORVA vs PRAVA): 1.136
- OR (rs7460605 allele G model DOM Imputed, ATORVA vs PRAVA): 1.481
- OR (rs7501186 allele A model DOM Imputed, ATORVA vs PRAVA): 2.011
- OR (rs7557560 allele T model REC Imputed, ATORVA vs PRAVA): 1.621
- OR (rs7562462 allele T model DOM Imputed, ATORVA vs PRAVA): 0.6891
- OR (rs7607447 allele T model REC Imputed, ATORVA vs PRAVA): 2.337
- OR (rs7648163 allele C model REC Imputed, ATORVA vs PRAVA): 0.941
- OR (rs7653190 allele C model ADD Imputed, ATORVA vs PRAVA): 0.9859
- OR (rs7653685 allele C model DOM Genotyped, ATORVA vs PRAVA): 0.8286
- OR (rs7684899 allele C model DOM Imputed, ATORVA vs PRAVA): 0.5176
- OR (rs7701604 allele G model ADD Imputed, ATORVA vs PRAVA): 0.9741
- OR (rs7701604 allele G model DOM Imputed, ATORVA vs PRAVA): 1.136
- OR (rs7703676 allele C model ADD Imputed, ATORVA vs PRAVA): 0.9741
- OR (rs7703676 allele C model DOM Imputed, ATORVA vs PRAVA): 1.136
- OR (rs7711358 allele A model DOM Imputed, ATORVA vs PRAVA): 0.593
- OR (rs7737608 allele G model DOM Imputed, ATORVA vs PRAVA): 0.7496
- OR (rs7762993 allele A model ADD Imputed, ATORVA vs PRAVA): 1.066
